{"source": "patent US11980616B2", "about": "“Treating liver disease by selectively eliminating senescent cells” (Buck Institute for Research on Aging, priority 2014, dated 2024)", "test_system": "senescent IMR90 cells", "assay": "CellTiter-Glo cell viability assay, senescent IMR90", "format": "cell-based, human", "protocol": "To determine whether ABT-263 is selectively toxic to senescent cells compared to non-senescent cells, a cell viability assay was used to assess cell survival following treatment with ABT-263. IMR90 cells (human primary lung fibroblasts (IMR90) (IMR-90 (ATCC® CCL-186™, Manassas, Virginia) were seeded in six well plates, and cells were induced to senescence with 10 Gy of ionizing radiation (IR) (Day 0). The media was refreshed every 3 days. The senescent phenotype is allowed to develop for 7 days at which point a cell count was made to determine the baseline number of cells followed by seeding into 96-well plates. On day 8, the senescent cells (irradiated) and the non-senescent cells (the non-radiated cells), were exposed to serial dilutions of ABT-263 for a period of 3 days. ABT-263 concentrations ranged from 0.5 nM to 3 μM. Each condition was seeded in triplicate.\nAfter three days of treatment (Day 11), cells were assayed for cell survival using the commercially available CellTiter-Glo® (CTG) Luminescent Cell Viability Assay (Promega Corporation, Madison, Wisconsin). The assay determines the number of viable cells in culture based on the quantitation of ATP present which is an indicator of metabolically active cells.\nThe experiments performed for assessing the effect of these other Bcl-2 inhibitors were performed essentially as described in Example 7. […]", "note": "At least one structure is not confirmed: it was looked up by name or label, or the drawing left a doubt."}
{"smiles": "COC1=CC(c2cc3ccccc3[nH]2)=N/C1=C\\c1[nH]c(C)cc1C", "note": "[Obatoclax]", "values": [{"measurement": "Selective targeting (killing) of senescent cells over non-senescent cells", "value": "inability"}]}
